Laboratory results taken from the supplement of paper PMC4604168 (melanoma cell lines).
Some of the results follow. Single values are uncertain, as repeats are few or missing.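 The apoptosis fraction was the count of cleaved-PARP antibody-stained nuclei relative to all DNA-stained nuclei, imaged in 1,536-well plates. Screening doses were set so most cells survived, and baseline and induced cleaved-PARP levels vary greatly across cell lines.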

Key:
Experiment in all cases: cleaved PARP positive nuclei fraction relative to DMSO control; melanoma cells; higher = more apoptosis
Conditions in all cases: library dose: low library concentration; 72 h
[1] = tested on: 501Mel
[2] = tested on: A101D
[3] = tested on: A2058
[4] = tested on: A375
[5] = tested on: C32
[6] = tested on: CBRC008 (line from a melanoma biopsy)
[7] = tested on: CBRC013 (line from a melanoma biopsy)
[8] = tested on: CBRC014 (line from a melanoma biopsy)
[9] = tested on: CBRC016 (line from a melanoma biopsy)
[10] = tested on: CBRC017 (line from a melanoma biopsy)
[11] = tested on: COLO792
[12] = tested on: COLO800
[13] = tested on: COLO829
[14] = tested on: G361
[15] = tested on: IPC-298
[16] = tested on: IST-MEL1
[17] = tested on: LB2518-MEL
[18] = tested on: LOXIMVI
[19] = tested on: MEL-HO

SMILES | cleaved PARP positive nuclei fraction [1] | cleaved PARP positive nuclei fraction [2] | cleaved PARP positive nuclei fraction [3] | cleaved PARP positive nuclei fraction [4] | cleaved PARP positive nuclei fraction [5] | cleaved PARP positive nuclei fraction [6] | cleaved PARP positive nuclei fraction [7] | cleaved PARP positive nuclei fraction [8] | cleaved PARP positive nuclei fraction [9] | cleaved PARP positive nuclei fraction [10] | cleaved PARP positive nuclei fraction [11] | cleaved PARP positive nuclei fraction [12] | cleaved PARP positive nuclei fraction [13] | cleaved PARP positive nuclei fraction [14] | cleaved PARP positive nuclei fraction [15] | cleaved PARP positive nuclei fraction [16] | cleaved PARP positive nuclei fraction [17] | cleaved PARP positive nuclei fraction [18] | cleaved PARP positive nuclei fraction [19]
Nc1ccn([C@@H]2O[C@H](CO)[C@@H](O)C2(F)F)c(=O)n1 [gemcitabine] + C=CCn1c(=O)c2cnc(Nc3ccc(N4CCN(C)CC4)cc3)nc2n1-c1cccc(C(C)(C)O)n1 [MK1775] (first compound 0.0004 µM, partner dose 0.02 µM) | 168% | 114% | 95.6% | 137% | 59.4% | 143% | 110% | 157% | 251% | 163% | 152% | 36.9% | 61.9% | 111% | 106% | 216% | 64.2% | 90.4% | 144%
CCCS(=O)(=O)Nc1ccc(F)c(C(=O)c2c[nH]c3ncc(Cl)cc23)c1F + COc1cc(Nc2ncc(F)c(Nc3ccc4c(n3)NC(=O)C(C)(C)O4)n2)cc(OC)c1OC [Tamatinib] (first compound 0.08 µM, partner dose 0.4 µM) | 175% | 118% | 133% | 121% | 63.2% | 257% | 122% | 74.4% | 79.6% | 88.8% | 249% | 90.2% | 56.6% | 194% | 30.1% | 153% | 111% | 54.6% | 106%
Nc1ccn([C@@H]2O[C@H](CO)[C@@H](O)C2(F)F)c(=O)n1 [gemcitabine] + NC(=O)Nc1cc(-c2cccc(F)c2)sc1C(=O)N[C@H]1CCCNC1 [AZD7762] (first compound 0.0004 µM, partner dose 0.02 µM) | 196% | 106% | 43.3% | 133% | 140% | 253% | 105% | 218% | 291% | 178% | 213% | 115% | 213% | 57.8% | 338% | 139% | 106% | 72.4% | 168%
O=C(O)c1ccc2c(c1)nc(Nc1cccc(Cl)c1)c1ccncc12 + NCC(=O)Nc1ccc(-n2nc(C(F)(F)F)cc2-c2ccc3c(ccc4ccccc43)c2)cc1 [OSU03012] (first compound 0.4 µM, partner dose 1 µM) | 150% | 200% | 197% | 3990% | 194% | 107% | 162% | 141% | 99.2% | 168% | 183% | 35.6% | 97.8% | 101% | 26.7% | 135% | 73.6% | 128% | 92.1%
CS(=O)(=O)CCNCc1ccc(-c2ccc3ncnc(Nc4ccc(OCc5cccc(F)c5)c(Cl)c4)c3c2)o1 [lapatinib] + O=C(O)c1ccc(-c2c[nH]c3ncc(-c4ccccc4)cc23)cc1C1CCCC1 [GSK650394] (first compound 0.8 µM, partner dose 0.16 µM) | 77.2% | 49.3% | 104% | 158% | 85.7% | 89.5% | 140% | 90.9% | 82.3% | 110% | 61.7% | 170% | 86.4% | 52.5% | 662% | 39.6% | 112% | 70.7% | 194%
Nc1ccn([C@@H]2O[C@H](CO)[C@@H](O)C2(F)F)c(=O)n1 [gemcitabine] + CN(C)S(=O)(=O)c1ccc2c(c1)/C(=C/c1cc3c([nH]1)CCCC3)C(=O)N2 [SU6656] (first compound 0.0004 µM, partner dose 0.4 µM) | 85.7% | 72.7% | 142% | 95.4% | 86.7% | 223% | 132% | 123% | 227% | 105% | 79.1% | 50.6% | 108% | 182% | 49.7% | 77.2% | 104% | 120% | 146%
CN1CCN(c2ccc3nc(-c4c(N)c5c(F)cccc5[nH]c4=O)[nH]c3c2)CC1 [Dovitinib] + CC(C)(C)c1cnc(CSc2cnc(NC(=O)C3CCNCC3)s2)o1 [SNS-032] (first compound 0.1 µM, partner dose 0.01 µM) | 81.2% | 44.8% | 174% | 150% | 60.7% | 159% | 176% | 90.8% | 135% | 111% | 91.1% | 65.1% | 129% | 53.8% | 90.3% | 47% | 48.7% | 121% | 455%
C[C@@H](Oc1cc(-c2cnn(C3CCNCC3)c2)cnc1N)c1c(Cl)ccc(F)c1Cl [Crizotinib] + CN(C)S(=O)(=O)c1ccc2c(c1)/C(=C/c1cc3c([nH]1)CCCC3)C(=O)N2 [SU6656] (first compound 0.2 µM, partner dose 0.4 µM) | 79.3% | 66.7% | 37.8% | 93.1% | 106% | 65% | 131% | 102% | 57.3% | 100% | 79.1% | 51.2% | 155% | 149% | 82.7% | 67.9% | 110% | 44.6% | 35.2%
CN1CCN(c2ccc3nc(-c4c(N)c5c(F)cccc5[nH]c4=O)[nH]c3c2)CC1 [Dovitinib] + O=C(Nc1cccc(Cl)c1)Nc1ncc(CCNc2ncnc3ccsc23)s1 [SNS314] (first compound 0.1 µM, partner dose 0.0008 µM) | 119% | 77.9% | 66.7% | 65% | 93.3% | 192% | 86.5% | 73.1% | 42.6% | 75.9% | 97.1% | 94% | 73.3% | 78% | 192% | 94.9% | 60.9% | 218% | 121%
CC(C)C[C@H](NC(=O)[C@H](Cc1ccccc1)NC(=O)c1cnccn1)B(O)O [Bortezomib] + Cc1cc(N2CCOCC2)cc2[nH]c(-c3c(NC[C@@H](O)c4cccc(Cl)c4)cc[nH]c3=O)nc12 [BMS536924] (first compound 0.001 µM, partner dose 0.2 µM) | 1070% | 292% | 153% | 184% | 104% | 943% | 73.3% | 275% | 653% | 539% | 72.3% | 132% | 79% | 1350% | 63.1% | 105% | 596% | 103% | 139%
O=C(O)[C@@H]1[O][Sb](=[O])([O][Sb]2(=[O])[O][C@H]([C@H](O)CO)[C@H](O)[C@H](C(=O)O)[O]2)[O][C@H]([C@H](O)CO)[C@@H]1O (some centres undefined) [stibogluconate] + CN(NC(=O)CC(=O)NN(C)C(=S)c1ccccc1)C(=S)c1ccccc1 [STA4783] (first compound 2 µM, partner dose 0.006 µM) | 108% | 170% | 42.7% | 1250% | 49.9% | 1060% | 124% | 149% | 87.2% | 186% | 75.1% | 92.7% | 155% | 62.1% | 48.5% | 103% | 154% | 58.3% | 65.3%
O=C(O)[C@@H]1[O][Sb](=[O])([O][Sb]2(=[O])[O][C@H]([C@H](O)CO)[C@H](O)[C@H](C(=O)O)[O]2)[O][C@H]([C@H](O)CO)[C@@H]1O (some centres undefined) [stibogluconate] + NCC(=O)Nc1ccc(-n2nc(C(F)(F)F)cc2-c2ccc3c(ccc4ccccc43)c2)cc1 [OSU03012] (first compound 2 µM, partner dose 1 µM) | 96% | 91.2% | 107% | 1570% | 43.7% | 51.3% | 72.7% | 75.1% | 111% | 115% | 137% | 89.2% | 55.7% | 75.4% | 94.1% | 67.9% | 145% | 70.1% | 67.4%
CS(=O)(=O)CCNCc1ccc(-c2ccc3ncnc(Nc4ccc(OCc5cccc(F)c5)c(Cl)c4)c3c2)o1 [lapatinib] + C=CCn1c(=O)c2cnc(Nc3ccc(N4CCN(C)CC4)cc3)nc2n1-c1cccc(C(C)(C)O)n1 [MK1775] (first compound 0.8 µM, partner dose 0.02 µM) | 115% | 108% | 104% | 168% | 87.7% | 110% | 117% | 103% | 86.7% | 124% | 225% | 38.1% | 47.7% | 45.6% | 116% | 191% | 94.8% | 51.1% | 132%
CN1CCN(c2ccc3nc(-c4c(N)c5c(F)cccc5[nH]c4=O)[nH]c3c2)CC1 [Dovitinib] + O=C(O)c1ccc(-c2c[nH]c3ncc(-c4ccccc4)cc23)cc1C1CCCC1 [GSK650394] (first compound 0.1 µM, partner dose 0.16 µM) | 198% | 107% | 139% | 179% | 147% | 166% | 134% | 110% | 168% | 179% | 101% | 145% | 219% | 120% | 99.7% | 96.6% | 97.9% | 197% | 74.6%
Cn1c(=O)n(-c2ccc(C(C)(C)C#N)cc2)c2c3cc(-c4cnc5ccccc5c4)ccc3ncc21 + O=C(Nc1cccc(Cl)c1)Nc1ncc(CCNc2ncnc3ccsc23)s1 [SNS314] (first compound 0.004 µM, partner dose 0.0008 µM) | 174% | 196% | 66.2% | 143% | 113% | 85.1% | 99.5% | 73.8% | 35.3% | 207% | 156% | 169% | 110% | 134% | 185% | 108% | 154% | 28.2% | 241%
CN1CCN(c2ccc3nc(-c4c(N)c5c(F)cccc5[nH]c4=O)[nH]c3c2)CC1 [Dovitinib] + O=C(CCCCCCC(=O)Nc1ccccc1)NO [vorinostat] (first compound 0.1 µM, partner dose 0.08 µM) | 94.9% | 42.2% | 168% | 22.1% | 102% | 87.9% | 158% | 76.7% | 147% | 112% | 79.4% | 82.8% | 218% | 165% | 87% | 123% | 97.1% | 43.9% | 69.2%

Part of the list above in a different format:
SMILES,cleaved PARP positive nuclei fraction [1],cleaved PARP positive nuclei fraction [2],cleaved PARP positive nuclei fraction [3],cleaved PARP positive nuclei fraction [4],cleaved PARP positive nuclei fraction [5],cleaved PARP positive nuclei fraction [6],cleaved PARP positive nuclei fraction [7],cleaved PARP positive nuclei fraction [8],cleaved PARP positive nuclei fraction [9],cleaved PARP positive nuclei fraction [10],cleaved PARP positive nuclei fraction [11],cleaved PARP positive nuclei fraction [12],cleaved PARP positive nuclei fraction [13],cleaved PARP positive nuclei fraction [14],cleaved PARP positive nuclei fraction [15],cleaved PARP positive nuclei fraction [16],cleaved PARP positive nuclei fraction [17],cleaved PARP positive nuclei fraction [18],cleaved PARP positive nuclei fraction [19]
"CCCS(=O)(=O)Nc1ccc(F)c(C(=O)c2c[nH]c3ncc(Cl)cc23)c1F + COc1cc(Nc2ncc(F)c(Nc3ccc4c(n3)NC(=O)C(C)(C)O4)n2)cc(OC)c1OC [Tamatinib] (first compound 0.08 µM, partner dose 0.4 µM)",175%,118%,133%,121%,63.2%,257%,122%,74.4%,79.6%,88.8%,249%,90.2%,56.6%,194%,30.1%,153%,111%,54.6%,106%
"Nc1ccn([C@@H]2O[C@H](CO)[C@@H](O)C2(F)F)c(=O)n1 [gemcitabine] + NC(=O)Nc1cc(-c2cccc(F)c2)sc1C(=O)N[C@H]1CCCNC1 [AZD7762] (first compound 0.0004 µM, partner dose 0.02 µM)",196%,106%,43.3%,133%,140%,253%,105%,218%,291%,178%,213%,115%,213%,57.8%,338%,139%,106%,72.4%,168%
"C[C@@H](Oc1cc(-c2cnn(C3CCNCC3)c2)cnc1N)c1c(Cl)ccc(F)c1Cl [Crizotinib] + CN(C)S(=O)(=O)c1ccc2c(c1)/C(=C/c1cc3c([nH]1)CCCC3)C(=O)N2 [SU6656] (first compound 0.2 µM, partner dose 0.4 µM)",79.3%,66.7%,37.8%,93.1%,106%,65%,131%,102%,57.3%,100%,79.1%,51.2%,155%,149%,82.7%,67.9%,110%,44.6%,35.2%
"CN1CCN(c2ccc3nc(-c4c(N)c5c(F)cccc5[nH]c4=O)[nH]c3c2)CC1 [Dovitinib] + O=C(O)c1ccc(-c2c[nH]c3ncc(-c4ccccc4)cc23)cc1C1CCCC1 [GSK650394] (first compound 0.1 µM, partner dose 0.16 µM)",198%,107%,139%,179%,147%,166%,134%,110%,168%,179%,101%,145%,219%,120%,99.7%,96.6%,97.9%,197%,74.6%
